The filed quantity is “Percent Effect” (%). The record does not define 0% and 100%; most values in the screen are far below 50% and negative numbers occur (in some assays of this library far below -100). This is an unselected part of the compounds tested. Two or more numbers in one place are separate tests of the same structure; such repeats can differ widely.

By UniProt entry, the sequences of proteins in these tests, tags left out. Residues count along the entry.
UniProt I6X8D2, whole entry: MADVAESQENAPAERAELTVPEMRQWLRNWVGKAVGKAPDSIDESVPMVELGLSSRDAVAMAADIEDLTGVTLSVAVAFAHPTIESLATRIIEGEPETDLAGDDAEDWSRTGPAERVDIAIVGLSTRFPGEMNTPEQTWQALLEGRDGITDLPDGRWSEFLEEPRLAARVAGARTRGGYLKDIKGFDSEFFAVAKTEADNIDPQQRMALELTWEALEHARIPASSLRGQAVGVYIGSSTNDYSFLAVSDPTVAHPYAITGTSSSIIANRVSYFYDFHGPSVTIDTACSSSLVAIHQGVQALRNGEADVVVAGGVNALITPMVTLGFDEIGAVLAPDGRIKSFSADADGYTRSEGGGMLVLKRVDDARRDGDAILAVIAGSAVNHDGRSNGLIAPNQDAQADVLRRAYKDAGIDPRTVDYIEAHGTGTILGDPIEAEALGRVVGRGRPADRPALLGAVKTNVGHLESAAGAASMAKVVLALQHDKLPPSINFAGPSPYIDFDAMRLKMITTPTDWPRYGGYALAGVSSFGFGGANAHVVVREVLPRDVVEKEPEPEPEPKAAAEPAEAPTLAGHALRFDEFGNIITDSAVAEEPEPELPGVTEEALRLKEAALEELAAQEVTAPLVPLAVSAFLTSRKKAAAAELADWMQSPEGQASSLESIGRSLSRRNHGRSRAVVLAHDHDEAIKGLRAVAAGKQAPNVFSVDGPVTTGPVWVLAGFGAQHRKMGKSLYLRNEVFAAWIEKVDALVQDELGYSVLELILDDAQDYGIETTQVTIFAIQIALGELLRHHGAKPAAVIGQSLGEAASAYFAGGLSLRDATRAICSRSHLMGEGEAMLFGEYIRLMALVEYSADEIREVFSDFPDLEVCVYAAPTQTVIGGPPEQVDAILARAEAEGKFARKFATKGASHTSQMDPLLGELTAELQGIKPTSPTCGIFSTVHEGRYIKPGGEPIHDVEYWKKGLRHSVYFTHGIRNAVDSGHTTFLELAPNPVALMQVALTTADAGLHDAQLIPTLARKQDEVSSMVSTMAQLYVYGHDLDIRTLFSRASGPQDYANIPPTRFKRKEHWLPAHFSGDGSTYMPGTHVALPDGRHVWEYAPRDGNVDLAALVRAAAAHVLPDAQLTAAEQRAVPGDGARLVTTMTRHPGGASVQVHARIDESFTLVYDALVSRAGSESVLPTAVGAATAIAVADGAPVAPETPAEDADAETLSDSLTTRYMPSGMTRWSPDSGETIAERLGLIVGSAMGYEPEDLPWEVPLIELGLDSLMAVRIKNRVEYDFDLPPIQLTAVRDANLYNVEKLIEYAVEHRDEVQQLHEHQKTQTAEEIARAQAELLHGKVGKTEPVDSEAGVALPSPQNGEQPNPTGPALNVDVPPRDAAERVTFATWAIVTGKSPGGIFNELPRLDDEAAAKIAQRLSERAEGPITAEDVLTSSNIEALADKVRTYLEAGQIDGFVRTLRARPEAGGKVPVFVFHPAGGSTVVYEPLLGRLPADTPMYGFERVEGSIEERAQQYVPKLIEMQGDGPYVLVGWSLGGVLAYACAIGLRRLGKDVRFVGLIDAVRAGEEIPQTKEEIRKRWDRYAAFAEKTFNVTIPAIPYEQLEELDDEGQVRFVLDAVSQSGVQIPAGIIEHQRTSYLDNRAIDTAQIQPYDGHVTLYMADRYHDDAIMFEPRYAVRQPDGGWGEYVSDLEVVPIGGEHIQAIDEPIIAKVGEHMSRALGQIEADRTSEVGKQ
UniProt Q4DA54, 1-478: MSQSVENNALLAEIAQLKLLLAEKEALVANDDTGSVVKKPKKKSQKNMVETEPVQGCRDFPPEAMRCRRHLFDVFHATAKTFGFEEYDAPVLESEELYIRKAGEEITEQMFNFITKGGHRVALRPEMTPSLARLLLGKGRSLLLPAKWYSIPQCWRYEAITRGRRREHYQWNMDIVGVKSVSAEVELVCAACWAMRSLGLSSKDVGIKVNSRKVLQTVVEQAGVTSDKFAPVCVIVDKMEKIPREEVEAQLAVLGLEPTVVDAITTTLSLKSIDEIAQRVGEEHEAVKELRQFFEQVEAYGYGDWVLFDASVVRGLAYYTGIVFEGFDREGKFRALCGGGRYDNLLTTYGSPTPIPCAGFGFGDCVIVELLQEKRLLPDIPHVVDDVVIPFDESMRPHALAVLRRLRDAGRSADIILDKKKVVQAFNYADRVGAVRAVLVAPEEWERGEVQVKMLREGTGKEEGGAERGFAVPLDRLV
UniProt P9WPC5, whole entry: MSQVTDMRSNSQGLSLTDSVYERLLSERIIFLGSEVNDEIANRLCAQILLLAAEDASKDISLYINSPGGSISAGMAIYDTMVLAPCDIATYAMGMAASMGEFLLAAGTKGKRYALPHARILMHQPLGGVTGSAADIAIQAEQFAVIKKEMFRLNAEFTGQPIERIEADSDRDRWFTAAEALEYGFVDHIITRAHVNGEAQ
UniProt P9WPC3, whole entry partner: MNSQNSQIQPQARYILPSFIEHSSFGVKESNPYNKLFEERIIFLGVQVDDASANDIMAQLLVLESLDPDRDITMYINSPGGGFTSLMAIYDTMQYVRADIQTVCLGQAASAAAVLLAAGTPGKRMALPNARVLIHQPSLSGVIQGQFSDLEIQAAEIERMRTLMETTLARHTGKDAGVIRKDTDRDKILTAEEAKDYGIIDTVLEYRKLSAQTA
UniProt A4I591, 1-473: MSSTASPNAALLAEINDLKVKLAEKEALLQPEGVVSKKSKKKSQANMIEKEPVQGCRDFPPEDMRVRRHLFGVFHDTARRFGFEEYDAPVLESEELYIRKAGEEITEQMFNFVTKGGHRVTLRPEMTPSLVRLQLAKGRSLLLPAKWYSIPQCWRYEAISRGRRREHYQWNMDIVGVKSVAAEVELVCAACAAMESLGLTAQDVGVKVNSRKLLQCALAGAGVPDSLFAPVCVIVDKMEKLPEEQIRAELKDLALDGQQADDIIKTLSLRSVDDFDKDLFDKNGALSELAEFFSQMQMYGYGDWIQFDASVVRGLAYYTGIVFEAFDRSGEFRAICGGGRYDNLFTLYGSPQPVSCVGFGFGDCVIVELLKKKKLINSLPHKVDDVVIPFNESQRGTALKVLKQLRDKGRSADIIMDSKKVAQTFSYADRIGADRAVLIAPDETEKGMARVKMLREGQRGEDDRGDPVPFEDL

A: 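Polyketide synthase Pks13, Mycobacterium tuberculosis (UniProt I6X8D2). Enzyme assay of the thioesterase domain of polyketide synthase 13; the read-out is not stated. Compounds at 30 µM. Higher reads as stronger inhibition (inferred from which compounds were picked for retests). Of about 67,000 compounds tested this way, about 300 (0.46%) reached 50% or more in at least one test.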
B: 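Histidine-tRNA ligase, Trypanosoma cruzi CL Brener (UniProt Q4DA54). Enzyme assay of histidyl-tRNA synthetase; the read-out is not stated. Tested at 30 µM. Higher reads as stronger inhibition (inferred: compounds with an IC50 in retests scored well above the rest). About 69,000 compounds were tested under these conditions; 0.045% (about 31) showed 50% or more at least once.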
C: 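ClpP1P2, Mycobacterium tuberculosis (UniProt P9WPC5 and UniProt P9WPC3). Protease assay of ClpP1P2, read by the AMC dye that it sets free. Compounds at 50 µM. Direction is inferred from only a few compounds that gave an IC50; most scored high, so higher reads as stronger inhibition. Most other retested compounds had strongly negative values. Of about 69,000 compounds tested this way, about 10 (0.015%) reached 50% or more in at least one test.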
D: 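Cell assay of Leishmania donovani living inside macrophages; the read-out is not stated. Compounds at 30 µM. The record gives no direction; compounds that gave an IC50 in retests scored well above the rest, so higher reads as stronger inhibition. Size under these conditions: about 69,000 compounds, about 1,000 of them at 50% or above in at least one test.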
E: 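Histidine-tRNA ligase, Leishmania infantum (UniProt A4I591). Enzyme assay of histidyl-tRNA synthetase; the read-out is not stated. Tested at 30 µM. Direction is inferred from retests: higher values go with stronger inhibition. The assay is labelled LdHisRS but filed under L. infantum. Of about 69,000 compounds tested this way, about 410 (0.6%) reached 50% or more in at least one test.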

- [H][C@@]12CCN(C(=O)c3ccnnc3)C[C@@]1([H])O[C@@H](c1nc(C)cs1)C2 | D: -2.264% & 3.791%
- O=C(Cc1ccc(F)cc1)N1CCN(CC(O)C2CC2)CC1 (stereo not given) | A: -14.41%; B: 6.612%; C: 0.3578%; E: 25%
- CC(NC(N)=O)C(=O)Nc1ccc(OCc2cccc(F)c2)c(F)c1 (stereo not given) | A: -17.16%; B: 1.111%; C: 6.506%; D: 4.652%; E: 7.692%
- Cc1ccc(C(=O)NS(=O)(=O)c2ccccc2C)c(=O)[nH]1 | A: -8.542%; B: 4.215%; C: 3.73%; D: -3.633%; E: 9.231%
- Cc1nc(CN2CCCN(CCCc3ccccc3)CC2)no1 | A: -9.18%; B: 7.447%; C: 1.707%; D: 25.58%; E: 32.86%
- O=C(O)C(F)(F)F.[H][C@@]12CCCO[C@]1([H])[C@H](NC(=O)CC1CC1)CN(c1ncccn1)C2 | D: -7.069%
- Cc1cnc(CN(C)C2CCN(CC(=O)Nc3nncs3)C2)o1 (stereo not given) | A: -30.36%; B: 1.504%; C: 8.184%; E: 5.618%
- CCc1oc(C(=O)NC(C)c2ncn[nH]2)cc1CN1CCCC1 (stereo not given) | A: -14.54%; B: 5.473%; C: -13.47%; D: 5.539%; E: -30.12%
- O=C(CCc1cccnc1)N(Cc1ccsc1)CC1CCCO1 (stereo not given) | A: -34.67%; B: 0%; C: -10.24%; D: 27.84%; E: 11.54%
- Cn1nccc1-c1ncc2c(c1C(=O)O)CCN(Cc1cccnc1)C2 | A: -14.68%; B: 4.813%; C: -3.893%; E: 14.53%
- O=C(O)C(F)(F)F.[H][C@@]12COC[C@@H](CC(=O)N3CCCCO3)[C@]1([H])CN(CC1CC1)C2 | D: -16.46%
- Cc1oc(C)c(C(=O)NCc2ccccc2CN(C)C)c1C | A: -38.65%; B: 2.941%; C: -27.05%; D: 22.13%; E: 18.35%
- COCCN1CCC2(CC1)CC(NC(=O)COC)c1ccccc1O2.O=C(O)C(F)(F)F (stereo not given) | D: 15.07%
- COc1c(-c2ccc(O)cc2)oc2cc(O)cc(O)c2c1=O | A: 5.283%; B: 0.9901%; C: 4.965%; D: -2.766%; E: 13.89%
- CCc1cnc(CN(C)C(=O)Nc2cnn(CC3CCCO3)c2)s1 (stereo not given) | A: 0.3099%; B: 0%; C: -4.555%; D: 5.72%; E: 10.2%
- CCC1CN(C(=O)c2cc(CN(C)CCc3ccccc3)on2)CCO1 (stereo not given) | A: 5.962%; B: 8.824%; C: -20.34%; D: -1.099%; E: 19.2%
- O=S(=O)(NCCNc1ccc(-n2cccn2)nn1)c1ccccc1 | A: -6.285%; B: 0%; C: 4.748%; D: 16.88%; E: -6.061%
- CS(=O)(=O)c1ccc(C(=O)NCCNc2ncccn2)cc1 | A: -6.178%; B: -1.734%; C: -20.74%; D: -21.24%; E: 6.14%
- CN(C)c1ccc(C(=O)N2CCC(c3cc4ncccc4[nH]3)CC2)cc1 | A: -1.84%; B: 1.13%; C: -7.102%; D: -1.505%; E: 12.59%
- COCCN1CCCC12CCN(c1ncccn1)CC2.O=C(O)C(F)(F)F | D: 30.54% & 11.19%
- COC(=O)C(NC(=O)C1CC1)c1cc(F)ccc1F (stereo not given) | A: 26.24%; B: 2.286%; C: -2.845%; D: 3.049%; E: 13.46%
- O=C(O)C(F)(F)F.[H][C@@]12CCN(CCc3ccccc3)C[C@@]1([H])[C@H](C(=O)NCC1CC1)CCO2 | D: 14.57%
- Cc1occc1-c1nc(-c2cccc(CN3CCOCC3)c2)no1 | A: 0.26%; B: 3.279%; C: 3.484%; D: -74.89%; E: 13.7%
- C=Cc1cccc(CN2C[C@@H](CN(C)CC)[C@@H](CO)C2)c1 | A: 18.84%; B: 2.899%; C: -14.54%; D: 6.956%; E: 9.167%
- CN(C)c1ccc(NC(=O)NCc2cccnc2N(C)C)cn1 | A: 5.12%; B: 0%; C: -29.41%; D: 16.78%; E: -15.38%

Some entries from above, unchanged:

{"structure": "COCCN1CCC2(CC1)CC(NC(=O)COC)c1ccccc1O2.O=C(O)C(F)(F)F", "stereo": "stereo not given", "D": 15.07}
{"structure": "COCCN1CCCC12CCN(c1ncccn1)CC2.O=C(O)C(F)(F)F", "D": "30.54 & 11.19"}

From ChEMBL document CHEMBL3988442, “University of Dundee, Small-Polar-MMV Screening Library” (2021).